These are yes or no findings as the source states them, for the method shown. In cells and extracts the contact can be indirect. Here binding means that the protein was enriched with, or labelled near, the bait; the list need not be complete.
B1: CPD (protein, UniProt O75976 32-1380)
chain: AHIKKAEATTTTTSAGAEAAEGQFDRYYHEEELESALREAAAAGLPGLARLFSIGRSVEGRPLWVLRLTAGLGSLIPEGDAGPDAAGPDAAGPLLPGRPQVKLVGNMHGDETVSRQVLIYLARELAAGYRRGDPRLVRLLNTTDVYLLPSLNPDGFERAREGDCGFGDGGPSGASGRDNSRGRDLNRSFPDQFSTGEPPALDEVPEVRALIEWIRRNKFVLSGNLHGGSVVASYPFDDSPEHKATGIYSKTSDDEVFKYLAKAYASNHPIMKTGEPHCPGDEDETFKDGITNGAHWYDVEGGMQDYNYVWANCFEITLELSCCKYPPASQLRQEWENNRESLITLIEKVHIGVKGFVKDSITGSGLENATISVAGINHNITTGRFGDFYRLLVPGTYNLTVVLTGYMPLTVTNVVVKEGPATEVDFSLRPTVTSVIPDTTEAVSTASTVAIPNILSGTSSSYQPIQPKDFHHHHFPDMEIFLRRFANEYPNITRLYSLGKSVESRELYVMEISDNPGVHEPGEPEFKYIGNMHGNEVVGRELLLNLIEYLCKNFGTDPEVTDLVHNTRIHLMPSMNPDGYEKSQEGDSISVIGRNNSNNFDLNRNFPDQFVQITDPTQPETIAVMSWMKSYPFVLSANLHGGSLVVNYPFDDDEQGLATYSKSPDDAVFQQIALSYSKENSQMFQGRPCKNMYPNEYFPHGITNGASWYNVPGGMQDWNYLQTNCFEVTIELGCVKYPLEKELPNFWEQNRRSLIQFMKQVHQGVRGFVLDATDGRGILNATISVAEINHPVTTYKTGDYWRLLVPGTYKITASARGYNPVTKNVTVKSEGAIQVNFTLVRSSTDSNNESKKGKGASSSTNDASDPTTKEFETLIKDLSAENGLESLMLRSSSNLALALYRYHSYKDLSEFLRGLVMNYPHITNLTNLGQSTEYRHIWSLEISNKPNVSEPEEPKIRFVAGIHGNAPVGTELLLALAEFLCLNYKKNPAVTQLVDRTRIVIVPSLNPDGRERAQEKDCTSKIGQTNARGKDLDTDFTNNASQPETKAIIENLIQKQDFSLSVALDGGSMLVTYPYDKPVQTVENKETLKHLASLYANNHPSMHMGQPSCPNKSDENIPGGVMRGAEWHSHLGSMKDYSVTYGHCPEITVYTSCCYFPSAARLPSLWADNKRSLLSMLVEVHKGVHGFVKDKTGKPISKAVIVLNEGIKVQTKEGGYFHVLLAPGVHNIIAIADGYQQQHSQVFVHHDAASSVVIVFDTDNRIFGLPRELVVTVSGATMSALILTACIIWCICSIKSNRHKDGFHRLRQHHDEYEDEIRMMSTGSKKSLLSHEFQDETDTEEETLYSSKH
B2: PLOD2 (protein, UniProt O00469 26-737)
chain: ADSEKPSSIPTDKLLVITVATKESDGFHRFMQSAKYFNYTVKVLGQGEEWRGGDGINSIGGGQKVRLMKEVMEHYADQDDLVVMFTECFDVIFAGGPEEVLKKFQKANHKVVFAADGILWPDKRLADKYPVVHIGKRYLNSGGFIGYAPYVNRIVQQWNLQDNDDDQLFYTKVYIDPLKREAINITLDHKCKIFQTLNGAVDEVVLKFENGKARAKNTFYETLPVAINGNGPTKILLNYFGNYVPNSWTQDNGCTLCEFDTVDLSAVDVHPNVSIGVFIEQPTPFLPRFLDILLTLDYPKEALKLFIHNKEVYHEKDIKVFFDKAKHEIKTIKIVGPEENLSQAEARNMGMDFCRQDEKCDYYFSVDADVVLTNPRTLKILIEQNRKIIAPLVTRHGKLWSNFWGALSPDGYYARSEDYVDIVQGNRVGVWNVPYMANVYLIKGKTLRSEMNERNYFVRDKLDPDMALCRNAREMGVFMYISNRHEFGRLLSTANYNTSHYNNDLWQIFENPVDWKEKYINRDYSKIFTENIVEQPCPDVFWFPIFSEKACDELVEEMEHYGKWSGGKHHDSRISGGYENVPTDDIHMKQVDLENVWLHFIREFIAPVTLKVFAGYYTKGFALLNFVVKYSPERQRSLRPHHDASTFTINIALNNVGEDFQGGGCKFLRYNCSIESPRKGWSFMHPGRLTHLHEGLPVKNGTRYIAVSFIDP

By UniProt entry, the sequences of proteins in these tests, tags left out. Residues count along the entry.
UniProt P09758, residues 27-323: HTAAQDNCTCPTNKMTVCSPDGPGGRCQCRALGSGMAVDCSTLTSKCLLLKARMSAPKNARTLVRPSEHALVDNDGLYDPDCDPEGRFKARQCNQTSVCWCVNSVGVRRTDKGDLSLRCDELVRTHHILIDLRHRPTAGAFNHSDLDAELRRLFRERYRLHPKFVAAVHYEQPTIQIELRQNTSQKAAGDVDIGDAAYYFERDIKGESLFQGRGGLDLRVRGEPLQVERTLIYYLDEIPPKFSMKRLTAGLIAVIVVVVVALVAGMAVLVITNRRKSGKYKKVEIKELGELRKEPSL
UniProt Q9ULV4: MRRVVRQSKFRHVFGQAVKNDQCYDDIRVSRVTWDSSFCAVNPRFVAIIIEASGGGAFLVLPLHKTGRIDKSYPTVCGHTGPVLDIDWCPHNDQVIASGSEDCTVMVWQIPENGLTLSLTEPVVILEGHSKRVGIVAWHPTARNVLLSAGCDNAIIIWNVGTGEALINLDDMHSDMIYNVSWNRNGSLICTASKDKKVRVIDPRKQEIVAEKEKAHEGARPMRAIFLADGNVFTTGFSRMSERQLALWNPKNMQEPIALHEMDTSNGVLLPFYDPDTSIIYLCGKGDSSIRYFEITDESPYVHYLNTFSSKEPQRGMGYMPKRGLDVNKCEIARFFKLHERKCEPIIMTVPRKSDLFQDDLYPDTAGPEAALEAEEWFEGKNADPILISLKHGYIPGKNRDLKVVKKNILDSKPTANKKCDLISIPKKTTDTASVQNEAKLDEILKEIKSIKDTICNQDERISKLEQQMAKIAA

Molecular target: Trophoblast cell surface protein 2 (human) (UniProt P09758)
Assay: affinity purification with mass spectrometry; anti-Trop2 IgG (CST #90540) on Dynabeads, protein sample of 293T cells overexpressing Trop2, 10 min at room temperature, washed with PBST three times, eluted with glycine pH 2.8; trypsin digest, TripleTOF 5600+, MaxQuant, peptide and protein FDR <=0.01

binding, binds:
coronin-like actin-binding protein 1C (from UniProt Q9ULV4 1-474), B1, B2
